Data source: PubChem BioAssay AID1159578 (Peter MacCallum Cancer Centre, 2015)
Test: 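siRNA pools altering how lymphatic endothelial cells close a scratch wound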 (primary screen). System: human lymphatic endothelial cells. Knock-down reagent: siRNA pool against human genes, 40 nM. Timing: 48 h after transfection. Measurement: 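High-content imaging of dye-stained cells in a scratch assay measures filled wound area and nuclei per well; duplicate means given as ratio to mock and robust z-score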. Reading the numbers: migration robust z-score: higher = faster migration into the scratch; nuclei per well: higher = more cells in the well. Call rule: 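Migration changed when robust z exceeds 2 or falls below -2 and mean nuclei number is at least 3300; otherwise not called changed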. Meaning of the calls: active = migration changed; inactive = no migration change, or too few cells.
Here is an unselected part of about 18,000 deposited reagents. About 1,030 of them (5.7%) were called active. 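Inactive calls also include pools with fewer than 3300 nuclei, whose migration was not assessed.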 Raw values vary from plate to plate and are shown uncorrected. Further read-outs or replicates are left out here.

What did the screen give for OR2AK2 (olfactory receptor family 2 subfamily AK member 2)?
migration robust z-score: 2.06; nuclei per well, duplicate mean: 5936; Outcome: active

Which result is listed for MIMS1 (mitochondrial inner membrane structural 1)?
migration robust z-score: 0.94; nuclei per well, duplicate mean: 5541; Outcome: inactive

For IGSF9 (immunoglobulin superfamily member 9), what was measured?
migration robust z-score: -0.76; nuclei per well, duplicate mean: 5801; Outcome: inactive

For PIP4K2A (phosphatidylinositol-5-phosphate 4-kinase type 2 alpha), what was measured?
migration robust z-score: -0.47; nuclei per well, duplicate mean: 4714; Outcome: inactive

With MRPS5 (mitochondrial ribosomal protein S5), what was measured?
migration robust z-score: -0.36; nuclei per well, duplicate mean: 5680; Outcome: inactive

What is on record for SOX7 (SRY-box transcription factor 7)?
migration robust z-score: 1.75; nuclei per well, duplicate mean: 6344; Outcome: inactive

For STH (saitohin), what was measured?
migration robust z-score: 1.36; nuclei per well, duplicate mean: 5883; Outcome: inactive

For CFL1 (cofilin 1), what does the deposit list?
migration robust z-score: -0.96; nuclei per well, duplicate mean: 4057; Outcome: inactive

What did the screen give for AQP4 (aquaporin 4)?
migration robust z-score: 0.78; nuclei per well, duplicate mean: 6384; Outcome: inactive

How did the screen score SRPK2 (SRSF protein kinase 2)?
migration robust z-score: -1.58; nuclei per well, duplicate mean: 3403; Outcome: inactive

For DIO1 (iodothyronine deiodinase 1), what does the deposit list?
migration robust z-score: -3.11; nuclei per well, duplicate mean: 4129; Outcome: active

What is on record for CDC42SE1 (CDC42 small effector 1)?
migration robust z-score: -0.94; nuclei per well, duplicate mean: 6656; Outcome: inactive

What did the screen give for PUS10 (pseudouridine synthase 10)?
migration robust z-score: -0.02; nuclei per well, duplicate mean: 5756; Outcome: inactive

With AGAP3 (ArfGAP with GTPase domain, ankyrin repeat and PH domain 3), what was measured?
migration robust z-score: -1.9; nuclei per well, duplicate mean: 3339; Outcome: inactive

Laid out differently: 2 of the entries above.
{"gene":"CDC42SE1 (CDC42 small effector 1)","migration robust z-score":-0.94,"nuclei per well, duplicate mean":6656,"Outcome":"inactive"}
{"gene":"PUS10 (pseudouridine synthase 10)","migration robust z-score":-0.02,"nuclei per well, duplicate mean":5756,"Outcome":"inactive"}
